PubChem BioAssay AID686937, Drosophila RNAi Screening Center, 2013

Aim: 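Genes in the fly needed for secretion of protein constitutively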 (primary screen)
Cells: Drosophila S2 cells expressing secreted horseradish peroxidase
Reagents: long dsRNA against Drosophila genes
Timing: about 5.5 days (5 days dsRNA, then 12 h reporter induction)
Challenge: reporter expression induced after 5 days of dsRNA, read 12 h later; inducer not stated
Detection: 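After 5 days of dsRNA and 12 h of reporter induction, medium peroxidase read by chemiluminescence and scored as per-plate z-score; higher values mean more reporter released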
Direction: z-score: higher = more reporter secreted into medium
The screen tested about 23,000 reagents; below is an unselected part of those that have a named target and a result. 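Reduced-secretion tags in replicate 1 do not always agree with the z-scores; no criterion for assigning the tags was given.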 Reagents against one gene are numbered here. A plus sign joins genes that one reagent is predicted to hit. Not stated in the record: the amount of reagent.

gene knocked down	reagent no.	z-score, replicate 1	z-score, replicate 2	z-score, replicate 3	z-score, replicate 4	phenotype, replicate 1
CG7120	1	0.76	0.51			
CG7120	2	0.27	0.52			
CG32694	1	0.28	0.36			
CG32694	2	0.25	0.02			
CG32694	3	-1.06	0.47			
Jon65Aii (Jonah 65Aii)	1	0.26	0.48			
brv3 (brivido-3)	1	0.13	0.29			
CG15539	1	0.38	0.33			
CG30398	1	-0.04	0.43			
shtd (shattered)	1	-0.17	-0.34			
CG15047	1	0.39	0.08	-0.17	0.49	
CG15047	2	0.99	1.86			
Pos (Poseidon)	1	0.33	0.21			
CG15140	1	-0.03	0.27			
Spn55B (Serpin 55B)	1	0.34	-0.01	-0.8	0.12	
Spn55B (Serpin 55B)	2	0.66	0			
atms (antimeros)	1	-1.33	-1.64			
tkv (thickveins)	1	-0.37	0.13			
tkv (thickveins)	2	0.28	0.21			
tkv (thickveins)	3	-0.24	-0.46			
term (terminus)	1	-0.05	-0.95			reduced secretion
twz (tiwaz)	1	0.18	0.25			
kune (kune-kune)	1	-0.01	0.18			
IRSp53 (Insulin receptor substrate 53 kDa)	1	-0.34	-0.04			
COX7B (Cytochrome c oxidase subunit 7B)	1	-0.64	-0.47			
CG3808	1	0.46	0.26			
Smu1 (Smu1 spliceosomal factor)	1	0.28	0.3			
CG12279	1	0.18	-0.13			
Ugt35D1 (UDP-glycosyltransferase family 35 member D1)	1	0.3	0.35			
CG2961	1	0.34	0.61			
HisRS (Histidyl-tRNA synthetase)	1	-1.66	-2.52			reduced secretion
CG14720	1	0.26	0.66			
CG43068	1	0.13	-0.17			
Vps53 (Vacuolar protein sorting 53)	1	-0.04	0.1			
CG15919	1	0.7	0.66			
CG4984 + CG4975	1	0.24	0.44			
CG4984 + CG4975	2	0.43	0.27			
Ste:CG33238 + Ste:CG33241 + Ste:CG33236 + 11 more	1	0.23	1.66			
Ste:CG33238 + Ste:CG33241 + Ste:CG33236 + 11 more	2	0.56	0.09			
CG14054	1	0.07	0.27			
CG15705	1	0.47	0.33			
Rpt3R (Regulatory particle triple-A ATPase 3-related)	1	-2.02	-3.09			reduced secretion
CG4229	1	0.41	0.22			
CG10286	1	0.18	-0.08			
CG17782	1	0.1	0.28			
CG5171	1	0.15	0.36			
Ent3 (Equilibrative nucleoside transporter 3)	1	0.3	0.23			
CG13698	1	0.33	0.23			
CG3630	1	0.25	-0.01			
Sec5 (Secretory 5)	1	0.31	0.3			
CG14957	1	-1.32	-0.56			
CG6414	1	0.41	0.59			
TTLL1B (Tubulin tyrosine ligase-like 1B)	1	0.17	0.27			
blot (bloated tubules)	1	0.22	0.44			
blot (bloated tubules)	2	0.12	0.2			
7SLRNA:CR42652 + 7SLRNA:CR32864	1	0.42	0.4			
CG4730	1	0.23	0.37			
Uros2 (Uroporphyrinogen III synthase 2)	1	0.2	0.14			
CG9449	1	0.14	0			
Acer (Angiotensin-converting enzyme-related)	1	-0.17	0.32			
CG31230	1	-0.02	0.32			
Obp49a (Odorant-binding protein 49a)	1	-0.16	0.02			
Drp1 (Dynamin related protein 1)	1	0.26	0.3			
cos (costa)	1	0.43	0.11			
CG6271	1	0.46	0.43			
gprs	1	-0.03	0.17			
MetRS-m (Methionyl-tRNA synthetase, mitochondrial)	1	0.13	0.35			
MetRS-m (Methionyl-tRNA synthetase, mitochondrial)	2	0.41	0.59			
ATPsynG (ATP synthase, subunit G)	1	-3.7	-0.37	-0.28	-2.12	
CG5556	1	0.14	0.42			
Mpi (Mannose phosphate isomerase)	1	0.01	0.49			
csul (capsuleen)	1	0.25	0.3			
mud (mushroom body defect)	1	0.39	0.21	-1.16	0.25	
CG6607	1	0.3	0.34			
Gr22d (Gustatory receptor 22d)	1	-0.59	-0.52			
CG9313	1	0.31	0.43			
Pdp (Pyruvate dehydrogenase phosphatase)	1	0.33	0.35			
nec (necrotic)	1	0.15	0.23			
TwdlW (TweedleW)	1	0.13	-0.27			
Spt6	1	-4.37	-3.6			reduced secretion
CG17776	1	0.33	0.14			
E(spl)m5-HLH (Enhancer of split m5, helix-loop-helix)	1	0.32	0.33			

No new results follow: entries from further up.
gene knocked down	reagent no.	z-score, replicate 1	z-score, replicate 2	z-score, replicate 3	z-score, replicate 4	phenotype, replicate 1
blot (bloated tubules)	1	0.22	0.44			
blot (bloated tubules)	2	0.12	0.2			
7SLRNA:CR42652 + 7SLRNA:CR32864	1	0.42	0.4			
CG4730	1	0.23	0.37			
Uros2 (Uroporphyrinogen III synthase 2)	1	0.2	0.14			
CG9449	1	0.14	0			
Acer (Angiotensin-converting enzyme-related)	1	-0.17	0.32			
CG31230	1	-0.02	0.32			
